Experimental data as given in US20240287128 (published 2024).
Where a sequence shows no end group, the ends are not given.

Assay: general procedure: Fmoc solid-phase peptide synthesis; Rink Amide Tentagel resin
Details: whole synthesis, 220 nm

Sequence | crude purity (method not given) (run 1) | crude purity (method not given)
KLLQDILDA | above 97% | 
MARADONA |  | above 80%
